# Measured data: PubChem BioAssay AID1259425 (University of Nebraska Medical Center, 2018)
# Aim: 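Seek colon cancer weak points whose silencing resembles KSR1 loss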 (primary screen)
# Cell system: HCT116 human colon cancer cells
# Knock-down reagent: siRNA pool against human genes, 50 nM siRNA
# Detection: 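mRNA of six signature genes measured together by branched-DNA assay after 50 nM siRNA pool, blank removed, divided by geometric mean of two housekeeping genes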
# Direction: BNIP3L mRNA: higher = more BNIP3L transcript after knockdown; NDRG1 mRNA: higher = more NDRG1 transcript after knockdown; BNIP3 mRNA: higher = more BNIP3 transcript after knockdown; ALDOC mRNA: higher = more ALDOC transcript after knockdown
# Here is an unselected part of about 14,000 reagents. Further read-outs or replicates are left out here. Not stated in the record: the time to read-out.
gene symbol,"BNIP3L mRNA, set 1","NDRG1 mRNA, set 1","BNIP3 mRNA, set 1","ALDOC mRNA, set 1"
CHMP1A,0.0531,0.167,0.257,0.0207
CPZ,0.117,0.413,0.364,0.0402
C1QL1,0.096,0.0531,0.298,0.0318
IK,0.238,0.421,0.279,0.0336
MRPL49,0.13,0.447,0.289,0.015
DUS1L,0.523,0.93,0.52,0.0179
PNMA8B,0.371,0.563,0.354,0.124
TBC1D2B,0.0745,0.0995,0.265,0.0239
CSNK1G2,0.105,0.329,0.268,0.00778
CCR7,0.169,0.613,0.22,0.027
KCNJ3,0.0887,0.106,0.305,0.0212
EPPIN,0.149,0.105,0.408,0.0285
USH1C,0.0736,0.205,0.28,0.0107
TNFAIP3,0.118,0.188,0.31,0.0448
CDH9,0.16,0.198,0.193,0.0136
RPS27L,0.163,0.448,0.404,0.0458
SERPINB9,0.115,0.137,0.337,0.013
ALPK1,0.0806,0.11,0.253,0.0136
MIPEP,0.0629,0.0907,0.222,0.0233
TOP3B,0.157,0.38,0.342,0.0492
